Some of the results follow. The main result of the screen is listed elsewhere. These columns were measured beside it and carry no call.

This assay in a line: protection against mutant huntingtin cytotoxicity, PC12 cells, LDH release (AID 1610). The following applies: PC12 mutant huntingtin toxicity, final LDH at 4 uM, stronger effect = lower value. Background: LDH in the medium is a marker of cell lysis.
With `C[C@H](CCC(=O)O)[C@H]1CCC2C3C(=O)CC4CC(=O)CC[C@]4(C)C3CC(=O)[C@@]21C` (stereo partly drawn), the normalised LDH release is 0.933.
As for `CNC(C)[C@@H]1CC[C@@H](N)[C@@H](OC2[C@@H](N)C[C@@H](N)[C@H](OC3OC[C@](C)(O)[C@H](NC)[C@H]3O)[C@H]2O)O1` (stereo partly drawn), the figure is 0.793; as for `CC(C(=O)O)c1ccc(C(=O)c2cccs2)cc1` (stereo not drawn), 0.857.
`Nc1nc(N)c2nc(-c3ccccc3)c(N)nc2n1` gave a normalised LDH release of 0.829.
As for `NCCCCN`, the figure is 0.865.
For `CC(C)(C)NC[C@@H](O)COc1nsnc1N1CCOCC1` the value was 0.89.
`O=C(O)C1CCCNC1` (stereo not drawn) returned a normalised LDH release of 0.967.
With `O=C1c2c(O)ccc(O)c2C(=O)c2c(NCCNCCO)ccc(NCCNCCO)c21`, the normalised LDH release was determined as 0.744.

(Values after PubChem BioAssay.)
